PubChem BioAssay AID1259281 | Sanger Institute | 2017
The whole screen tested 794 reagents; shown is a part drawn at random. 22 of them (2.8%) were called active. 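Calls rest on knock-down alone only; drug synergy scores play no part in them.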 Entries without a mark were called inactive. Further read-outs or replicates are left out here. Not given: the amount of reagent, the time to read-out.

- Purpose: 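Screen kinases and frequently colorectal-mutated genes for lethal knock-downs and drug partners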 (primary screen)
- System: human COLO678 colorectal cancer cell line
- Reagents: siRNA pool against human genes
- Conditions: anchor drugs at fixed doses: BYL719 1 µM, cetuximab 5 µg/ml or trametinib 10 nM; DMSO vehicle for the siRNA-alone arm
- Measured: 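Surviving cells scaled to non-targeting siRNA control as replicate means; robust z-score for knock-down alone; synergy scores weigh knock-down with drug against the predicted combined effect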
- Direction: robust z-score, siRNA alone: higher = more viable cells; strongly negative means essential
- Rule for the call: 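Called essential (knock-down alone) if knock-down by itself drops cell number to a robust z-score under -3; all others no change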
- Meaning of the calls: active = essential (knock-down alone); inactive = no change

gene | robust z-score, siRNA alone
MARK1 | -0.692
PIKFYVE | 0.248
CERT1 | 0.473
CIB2 | -1.18
CAD | 0.473
LMTK1 | 0.473
MGA | 0.473
PRKAR2B | -1.81
NADK | 0.473
CIT | -0.945
PKIB | 0.473
CILK1 | 0.473
PANK3 | 0.473
WNK2 | 0.473
ROCK2 | 0.473
EIF2AK4 | 0.473
SIK2 | 0.473
STK35 | 0.473
GATA3 | 0.473
ACO1 | -0.85
KDR | 0.473
NUP62 | 0.473
DYRK1B | 0.228
CAMK4 | 0.473
MELK | 0.473
STK25 | -1.31
PXK | 0.473
CALM1 | 0.473
MATK | 0.473
SRPK2 | 0.473
GRK3 | 0.473
PLK1 | -0.276
FBXW7 | 0.473
SOX9 | 0.473
EPHA1 | 0.473
SIK3 | 0.473
SMC1A | 0.473
CAMK1D | 0.473
SHPK | 0.473
TEC | -1.17
EFNB3 | 0.368
AXIN2 | 0.137
DDR1 | 0.473
BUB1 | -1.86
ADPGK | 0.352
CSNK1A1 | -2
NME6 | 0.473
RPS6KA5 | -1.31
MAP3K8 | -4.02 (active)
MAPK9 | 0.473

4 of these entries in another layout:
gene	robust z-score, siRNA alone
SOX9	0.473
EPHA1	0.473
SIK3	0.473
SMC1A	0.473
